Results are given in words; binding and its absence hold for the method and conditions named. A result given as binding can be weak or reduced; the word gives no strength. For part of these data: Binding seen in cells or lysates may run through a third protein. Each block holds one molecule with its values, some of them ahead of it.
Experiments:
[1] = molecular target: T1, PIP2;1-Cub-PLV (split-ubiquitin bait, pMetYC-DEST) (Arabidopsis thaliana) (UniProt P43286); experiment: two-hybrid
T1 sequence: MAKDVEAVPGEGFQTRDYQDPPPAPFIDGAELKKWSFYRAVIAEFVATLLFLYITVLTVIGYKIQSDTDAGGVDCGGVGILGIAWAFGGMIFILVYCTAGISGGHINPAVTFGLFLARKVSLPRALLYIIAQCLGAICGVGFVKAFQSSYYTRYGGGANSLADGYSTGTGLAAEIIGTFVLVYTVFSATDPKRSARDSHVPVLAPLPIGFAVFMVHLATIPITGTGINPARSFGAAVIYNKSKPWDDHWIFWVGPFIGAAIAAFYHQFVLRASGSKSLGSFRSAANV

By UniProt entry, the sequences of proteins in these tests, tags left out. Where a name states a change or a piece, a line headed by the entry shows the natural chain unless it says otherwise.
UniProt Q9M5P2: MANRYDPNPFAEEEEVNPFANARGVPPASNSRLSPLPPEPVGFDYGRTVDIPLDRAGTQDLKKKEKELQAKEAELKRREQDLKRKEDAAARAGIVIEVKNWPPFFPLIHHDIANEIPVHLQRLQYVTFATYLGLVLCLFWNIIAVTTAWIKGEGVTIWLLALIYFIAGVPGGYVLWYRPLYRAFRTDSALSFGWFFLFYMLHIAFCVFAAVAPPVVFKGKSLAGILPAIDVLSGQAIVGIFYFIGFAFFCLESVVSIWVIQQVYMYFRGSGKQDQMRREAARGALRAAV
UniProt Q9C6X2: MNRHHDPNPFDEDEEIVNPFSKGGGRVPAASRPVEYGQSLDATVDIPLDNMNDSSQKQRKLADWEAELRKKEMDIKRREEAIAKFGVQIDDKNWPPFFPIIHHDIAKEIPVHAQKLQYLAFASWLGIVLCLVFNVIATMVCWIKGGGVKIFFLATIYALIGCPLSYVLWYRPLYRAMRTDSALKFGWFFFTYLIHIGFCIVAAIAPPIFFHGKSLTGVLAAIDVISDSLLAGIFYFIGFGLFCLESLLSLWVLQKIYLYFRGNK

[2] = molecular target: T2, PIP2;6-Cub-PLV (split-ubiquitin bait, pMetYC-DEST) (Arabidopsis thaliana) (UniProt Q9ZV07); experiment: two-hybrid
T2 sequence: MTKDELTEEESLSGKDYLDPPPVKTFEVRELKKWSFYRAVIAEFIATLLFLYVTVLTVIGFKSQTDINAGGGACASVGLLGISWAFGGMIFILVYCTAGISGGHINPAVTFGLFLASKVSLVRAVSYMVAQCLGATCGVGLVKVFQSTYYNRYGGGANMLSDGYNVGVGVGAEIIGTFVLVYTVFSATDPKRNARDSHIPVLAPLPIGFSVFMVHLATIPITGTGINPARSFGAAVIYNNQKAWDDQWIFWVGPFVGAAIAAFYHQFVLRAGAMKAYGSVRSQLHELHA

[3] = molecular target: T3, PIP2;2-Cub-PLV (split-ubiquitin bait, pMetYC-DEST) (Arabidopsis thaliana) (UniProt P43287); experiment: two-hybrid
T3 sequence: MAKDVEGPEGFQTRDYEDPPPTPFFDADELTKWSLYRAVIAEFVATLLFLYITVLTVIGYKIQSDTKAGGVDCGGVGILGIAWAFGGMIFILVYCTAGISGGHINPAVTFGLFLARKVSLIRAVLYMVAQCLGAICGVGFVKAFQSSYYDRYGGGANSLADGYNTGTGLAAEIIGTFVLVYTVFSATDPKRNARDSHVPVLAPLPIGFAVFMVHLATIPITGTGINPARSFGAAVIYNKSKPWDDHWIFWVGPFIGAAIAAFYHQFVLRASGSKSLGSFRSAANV

[4] = molecular target: T4, PIP2;7-Cub-PLV (split-ubiquitin bait, pMetYC-PIP2;7) (Arabidopsis thaliana) (UniProt P93004); experiment: two-hybrid
T4 sequence: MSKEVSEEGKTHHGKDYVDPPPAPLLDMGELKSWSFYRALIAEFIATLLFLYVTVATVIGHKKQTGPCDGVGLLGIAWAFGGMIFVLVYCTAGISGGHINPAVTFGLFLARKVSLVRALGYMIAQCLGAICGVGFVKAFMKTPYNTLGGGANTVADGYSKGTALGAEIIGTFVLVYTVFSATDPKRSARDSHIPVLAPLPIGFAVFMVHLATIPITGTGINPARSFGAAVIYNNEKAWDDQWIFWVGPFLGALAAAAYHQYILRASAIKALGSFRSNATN

[5] = molecular target: SCAMP1-GFP (pSCAMP1::SCAMP1-eGFP) (Arabidopsis thaliana) (UniProt Q9M5P2); experiment: FRET or BRET
[6] = molecular target: SCAMP5-Cub-PLV (split-ubiquitin bait, pMetYC-DEST) (Arabidopsis thaliana) (UniProt Q9C6X2); experiment: two-hybrid

- binding [1]: binds
- binding [2]: binds
- binding [3]: binds
- binding [4]: binds
Molecule: NubG-SCAMP5 (split-ubiquitin prey, pNX35-DEST) (from UniProt Q9C6X2)

- binding [5]: binds
Molecule: SCAMP5-mCherry (from UniProt Q9C6X2)

- binding [6]: binds
B1: PIP1;2-NubA (split-ubiquitin prey, pXNubA22-DEST) (protein, UniProt Q06611 1-286)
chain: MEGKEEDVRVGANKFPERQPIGTSAQSDKDYKEPPPAPLFEPGELASWSFWRAGIAEFIATFLFLYITVLTVMGVKRSPNMCASVGIQGIAWAFGGMIFALVYCTAGISGGHINPAVTFGLFLARKLSLTRAVYYIVMQCLGAICGAGVVKGFQPKQYQALGGGANTIAHGYTKGSGLGAEIIGTFVLVYTVFSATDAKRNARDSHVPILAPLPIGFAVFLVHLATIPITGTGINPARSLGAAIIFNKDNAWDDHWVFWVGPFIGAALAALYHVIVIRAIPFKSRS
